# The entries are a selection whose mix differs from that of the whole data set. Calls are pooled over several reports, among them a noisy single-well screen.
# What was measured:
# Settings in all cases: stereoisomer not certain
# OR13C2 (Homo sapiens) = target: T1, OR13C2 (Homo sapiens) (UniProt Q8NGS9)
# T1 sequence (whole entry): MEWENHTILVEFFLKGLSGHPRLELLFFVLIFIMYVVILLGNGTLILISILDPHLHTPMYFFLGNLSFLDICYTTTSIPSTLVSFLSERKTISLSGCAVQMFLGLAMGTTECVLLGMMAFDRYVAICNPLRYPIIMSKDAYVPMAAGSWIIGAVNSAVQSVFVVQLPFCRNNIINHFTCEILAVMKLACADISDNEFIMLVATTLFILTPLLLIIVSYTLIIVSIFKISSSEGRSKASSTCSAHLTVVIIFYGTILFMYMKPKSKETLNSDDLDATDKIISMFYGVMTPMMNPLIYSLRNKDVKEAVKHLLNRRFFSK
# Method in brief: (§1)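 Assay methods differ from source to source, frequently being transient luciferase assays in mammalian cell lines. For each receptor–molecule pair, the label responsive (active) applies when the original authors judged the measured signal statistically different from baseline, and non-responsive (inactive) applies otherwise.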
# OR13C3 (Homo sapiens) = target: T2, OR13C3 (Homo sapiens) (UniProt Q8NGS6)
# T2 sequence (whole entry): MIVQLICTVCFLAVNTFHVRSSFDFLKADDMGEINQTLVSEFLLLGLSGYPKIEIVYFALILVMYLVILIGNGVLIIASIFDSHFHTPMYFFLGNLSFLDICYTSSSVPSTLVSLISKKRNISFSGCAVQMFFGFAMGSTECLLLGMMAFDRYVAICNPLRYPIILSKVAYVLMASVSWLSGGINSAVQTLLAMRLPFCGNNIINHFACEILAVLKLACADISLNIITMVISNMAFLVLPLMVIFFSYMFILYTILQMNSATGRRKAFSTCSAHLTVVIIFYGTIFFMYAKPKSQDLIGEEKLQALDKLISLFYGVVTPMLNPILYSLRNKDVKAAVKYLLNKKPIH
# Method in brief: as §1
# OR13C4 (Homo sapiens) = target: T3, OR13C4 (Homo sapiens) (UniProt Q8NGS5)
# T3 sequence (whole entry): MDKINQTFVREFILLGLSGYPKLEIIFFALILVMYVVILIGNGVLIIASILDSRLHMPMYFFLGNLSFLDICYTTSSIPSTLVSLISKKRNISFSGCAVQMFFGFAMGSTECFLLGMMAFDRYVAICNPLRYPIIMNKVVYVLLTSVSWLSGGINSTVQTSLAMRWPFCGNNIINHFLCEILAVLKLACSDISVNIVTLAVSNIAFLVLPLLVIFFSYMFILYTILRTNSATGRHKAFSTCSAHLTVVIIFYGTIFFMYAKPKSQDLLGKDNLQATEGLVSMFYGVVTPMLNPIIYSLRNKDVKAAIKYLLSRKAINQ
# Method in brief: as §1
# OR13C8 (Homo sapiens) = target: T4, OR13C8 (Homo sapiens) (UniProt Q8NGS7)
# T4 sequence (whole entry): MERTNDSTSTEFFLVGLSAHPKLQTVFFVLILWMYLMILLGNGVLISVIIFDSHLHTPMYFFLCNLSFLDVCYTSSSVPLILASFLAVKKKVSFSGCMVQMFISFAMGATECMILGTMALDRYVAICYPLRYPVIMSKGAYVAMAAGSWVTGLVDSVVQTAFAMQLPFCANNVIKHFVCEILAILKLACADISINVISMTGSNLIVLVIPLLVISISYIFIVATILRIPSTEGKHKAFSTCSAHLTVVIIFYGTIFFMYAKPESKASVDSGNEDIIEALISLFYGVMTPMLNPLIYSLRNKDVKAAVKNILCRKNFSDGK
# Method in brief: as §1
# OR13H1 (Homo sapiens) = target: T5, OR13H1 (Homo sapiens) (UniProt Q8NG92)
# T5 sequence (whole entry): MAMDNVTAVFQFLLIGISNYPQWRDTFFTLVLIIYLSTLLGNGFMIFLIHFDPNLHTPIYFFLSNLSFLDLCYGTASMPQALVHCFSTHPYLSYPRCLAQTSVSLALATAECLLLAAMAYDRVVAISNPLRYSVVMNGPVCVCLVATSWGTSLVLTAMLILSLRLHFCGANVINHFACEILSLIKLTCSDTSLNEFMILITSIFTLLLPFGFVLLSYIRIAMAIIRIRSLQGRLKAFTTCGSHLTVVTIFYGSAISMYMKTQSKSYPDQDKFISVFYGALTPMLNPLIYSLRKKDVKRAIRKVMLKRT
# Method in brief: as §1
SMILES,odorant receptor agonist call (OR13C2 (Homo sapiens)),odorant receptor agonist call (OR13C3 (Homo sapiens)),odorant receptor agonist call (OR13C4 (Homo sapiens)),odorant receptor agonist call (OR13C8 (Homo sapiens)),odorant receptor agonist call (OR13H1 (Homo sapiens))
O=CCc1ccccc1,active,inactive,inactive,inactive,inactive
CCCCCCCCCCC=O,inactive,inactive,inactive,inactive,inactive
O=C1CCCCCCCCCCCC(=O)OCCO1,active,inactive,inactive,inactive,inactive
O=C1CCCCC1,,inactive,inactive,inactive,inactive
CC1=NC(C)SC1C (stereo not drawn),,inactive,inactive,inactive,inactive
CC(C)CC(=O)O,inactive,inactive,inactive,inactive,inactive
CC12CCC(CC1)C(C)(C)O2,inactive,inactive,inactive,inactive,inactive
CCCCCCCOC(C)=O,inactive,inactive,inactive,inactive,inactive
CC(C)(O)CCCC1=CCC(C=O)CC1 (stereo not drawn),inactive,,inactive,,
CCCCCC(=O)O,inactive,inactive,inactive,inactive,inactive
CC(C)(C)c1ccc(CCC=O)cc1,inactive,inactive,inactive,inactive,inactive
C=CCc1ccc(OC(C)=O)c(OC)c1,active,inactive,inactive,inactive,inactive
CC(=O)c1ccccc1,,inactive,inactive,inactive,inactive
CC(C)C(=O)O,inactive,inactive,inactive,inactive,inactive
CCCCCCCCOC(C)=O,inactive,inactive,inactive,inactive,inactive
CC(=O)OC1CC2CCC1(C)C2(C)C (stereo not drawn),active,inactive,inactive,inactive,inactive
CCC=CCCO,inactive,inactive,inactive,inactive,inactive
CCCC(=O)O,inactive,inactive,inactive,inactive,inactive
CCCCCC(C)=O,,inactive,inactive,inactive,inactive
CCCCO,inactive,inactive,inactive,inactive,inactive
C=CC(C)(O)CCC=C(C)C (stereo not drawn),inactive,inactive,inactive,inactive,inactive
CC1=CCC(C(C)(C)O)CC1 (stereo not drawn),inactive,inactive,inactive,inactive,inactive
CC(=O)OC(C)(C)C1CC=C(C)CC1 (stereo not drawn),inactive,inactive,inactive,inactive,inactive

# Reformatted bar-delimited: part of the list above.
SMILES | odorant receptor agonist call (OR13C2 (Homo sapiens)) | odorant receptor agonist call (OR13C3 (Homo sapiens)) | odorant receptor agonist call (OR13C4 (Homo sapiens)) | odorant receptor agonist call (OR13C8 (Homo sapiens)) | odorant receptor agonist call (OR13H1 (Homo sapiens))
CC(C)CC(=O)O | inactive | inactive | inactive | inactive | inactive
CC12CCC(CC1)C(C)(C)O2 | inactive | inactive | inactive | inactive | inactive

# Source: the M2OR odorant receptor database
